Measurements from doi:10.1101/2020.05.06.080465.
These are yes or no findings as the source states them, for the method shown. Some entries that bind do so weakly or less than the wild type.

Molecular target: NEDD8 activating complex NAE1-UBA3 (human (endogenous in HeLa)) (UniProt Q13564+Q8TBC4)
Experiment: SEC

B1: ASB6 (protein, UniProt Q9NWX5 1-421)
chain: MPFLHGFRRIIFEYQPLVDAILGSLGIQDPERQESLDRPSYVASEESRILVLTELLERKAHSPFYQEGVSNALLKMAELGLTRAADVLLRHGANLNFEDPVTYYTALHIAVLRNQPDMVELLVHHGADVNRRDRIHESSPLDLASEEPERLPCLQRLLDLGADVNAADKHGKTALLHALASSDGVQIHNTENIRLLLEGGADVKATTKDGDTVFTCIIFLLGETVGGDKEEAQMINRFCFQVTRLLLAHGADPSECPAHESLTHICLKSFKLHFPLLRFLLESGAAYNCSLHGASCWSGFHIIFERLCSHPGCTEDESHADLLRKAETVLDLMVTNSQKLQLPENFDIHPVGSLAEKIQALHFSLRQLESYPPPLKHLCRVAIRLYLQPWPVDVKVKALPLPDRLKWYLLSEHSGSVEDDI
binding: binds
